Assay results from patent publication US7078478B2, “Inhibition of the proliferation of cells of the multiple myeloma” (GSF-Forschungszentrum für Umwelt Gesundheit, GmbH, priority 1999, dated 2006).
No constants are given. Whether binding was seen depends on the method and setting. In cells and extracts the contact can be indirect. Some results given as binding are weak or reduced against the parent protein; the word gives no strength. Where a sequence is shown, tags or fusion partners need not be part of it.

The chains behind the UniProt entries cited, without tags or fusion partners. Where a name states a change or a piece, a line headed by the entry shows the natural chain unless it says otherwise. Residues count along the entry.
UniProt P40189: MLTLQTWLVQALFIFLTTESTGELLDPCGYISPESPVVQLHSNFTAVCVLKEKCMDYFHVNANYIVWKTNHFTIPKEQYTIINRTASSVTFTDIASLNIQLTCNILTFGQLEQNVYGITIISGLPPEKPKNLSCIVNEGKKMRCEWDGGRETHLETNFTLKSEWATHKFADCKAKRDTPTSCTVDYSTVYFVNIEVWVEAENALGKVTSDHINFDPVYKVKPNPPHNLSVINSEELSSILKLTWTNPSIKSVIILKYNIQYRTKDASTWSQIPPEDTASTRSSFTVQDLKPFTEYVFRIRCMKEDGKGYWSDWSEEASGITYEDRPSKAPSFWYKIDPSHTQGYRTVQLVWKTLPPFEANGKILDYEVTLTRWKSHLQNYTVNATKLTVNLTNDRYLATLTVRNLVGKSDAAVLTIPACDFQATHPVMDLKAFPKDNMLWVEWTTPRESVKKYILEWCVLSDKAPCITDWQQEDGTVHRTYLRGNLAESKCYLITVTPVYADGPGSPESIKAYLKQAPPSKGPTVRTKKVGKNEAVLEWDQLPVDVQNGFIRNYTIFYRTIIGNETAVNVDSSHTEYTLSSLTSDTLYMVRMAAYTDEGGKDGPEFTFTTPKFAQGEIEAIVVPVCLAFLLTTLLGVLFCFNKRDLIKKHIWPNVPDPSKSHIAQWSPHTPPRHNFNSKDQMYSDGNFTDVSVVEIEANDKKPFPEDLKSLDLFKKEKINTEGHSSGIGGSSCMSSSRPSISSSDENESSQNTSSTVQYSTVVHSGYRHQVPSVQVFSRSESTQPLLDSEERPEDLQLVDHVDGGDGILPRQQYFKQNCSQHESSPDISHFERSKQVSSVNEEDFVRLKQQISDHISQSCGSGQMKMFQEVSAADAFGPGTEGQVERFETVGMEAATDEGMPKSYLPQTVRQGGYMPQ
UniProt P08631, residues 2-526: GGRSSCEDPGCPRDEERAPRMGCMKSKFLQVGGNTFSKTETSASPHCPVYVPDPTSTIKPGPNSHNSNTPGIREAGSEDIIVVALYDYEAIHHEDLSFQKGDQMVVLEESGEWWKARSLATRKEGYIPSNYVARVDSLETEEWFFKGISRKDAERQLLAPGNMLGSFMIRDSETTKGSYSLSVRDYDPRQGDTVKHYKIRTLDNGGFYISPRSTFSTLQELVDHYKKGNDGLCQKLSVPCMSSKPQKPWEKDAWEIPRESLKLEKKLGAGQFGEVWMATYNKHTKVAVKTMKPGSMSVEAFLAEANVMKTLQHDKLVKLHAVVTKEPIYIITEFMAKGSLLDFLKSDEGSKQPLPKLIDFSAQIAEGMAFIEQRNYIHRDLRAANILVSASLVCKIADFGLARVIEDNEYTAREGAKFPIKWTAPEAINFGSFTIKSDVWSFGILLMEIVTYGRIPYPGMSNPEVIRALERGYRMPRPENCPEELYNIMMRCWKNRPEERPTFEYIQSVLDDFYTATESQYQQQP

What was measured:
[1] = target: T1, wild type erythropoietin receptor-gp130 (Eg) fusion protein (mouse; human) (UniProt P14753+P40189); assay: co-immunoprecipitation with Hck antibody, anti-His-label blot, Cos-7 cells
T1 sequence (looked up): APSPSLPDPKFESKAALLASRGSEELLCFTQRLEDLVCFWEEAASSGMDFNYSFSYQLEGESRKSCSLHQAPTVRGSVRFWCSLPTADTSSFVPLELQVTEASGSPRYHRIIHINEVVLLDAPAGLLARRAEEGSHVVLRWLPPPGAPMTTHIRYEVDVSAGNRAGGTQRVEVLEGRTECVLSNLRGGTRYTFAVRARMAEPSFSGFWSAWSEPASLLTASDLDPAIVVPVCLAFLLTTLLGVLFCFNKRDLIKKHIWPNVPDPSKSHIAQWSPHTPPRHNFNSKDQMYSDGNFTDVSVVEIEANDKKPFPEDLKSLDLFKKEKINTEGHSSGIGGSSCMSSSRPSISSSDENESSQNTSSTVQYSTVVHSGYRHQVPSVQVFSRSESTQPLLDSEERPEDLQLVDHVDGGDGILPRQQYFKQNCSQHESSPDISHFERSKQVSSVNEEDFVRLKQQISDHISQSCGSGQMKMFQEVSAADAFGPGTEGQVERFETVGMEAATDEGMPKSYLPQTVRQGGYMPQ

[2] = target: T1, wild type erythropoietin receptor-gp130 (Eg) fusion protein (mouse; human); assay: co-immunoprecipitation with anti-Hck, anti-His blot, Cos-7 lysates (FIG. 5B)

binding [1]: binds | binding [2]: binds
Substance: Hck tyrosine kinase (wild type Hck, expressed from pcDNA3-Hck or pDpuro-Hck) (from UniProt P08631 2-526) (enzyme)
